Consider two compounds from PMC3781304 (American Journal of Cardiovascular Drugs, 2013).

Data set [1] in a line: Amiodarone drug-drug interaction study: edoxaban pharmacokinetics.
The nature of data set [2]: Atorvastatin drug-drug interaction study: edoxaban pharmacokinetics.

SMILES strings stand for the structures. “Also recorded” adds a separate entry of the source. Like-named read-outs stand apart in the source and are kept apart here.

For the compound `CCCCc1oc2ccccc2c1C(=O)c1cc(I)c(OCCN(CC)CC)c(I)c1` [Amiodarone, amiodarone], the “Effect of coadministration on edoxaban exposure (in words)” value in data set [1] is “Modest/minimal effects; also recorded: did not significantly affect exposure”.

For the compound `CC(C)c1c(C(=O)Nc2ccccc2)c(-c2ccccc2)c(-c2ccc(F)cc2)n1CC[C@@H](O)C[C@@H](O)CC(=O)O` [Atorvastatin, atorvastatin], the “Effect of coadministration on edoxaban exposure/PK (in words)” value in data set [2] is given as “did not significantly affect exposure”; in data set [2] (listed as atorvastatin), “minimal effects; also recorded: relatively minor effects”.
